Experimental data reported in PMC10897178, “FANCJ DNA helicase is recruited to the replisome by AND-1 to ensure genome stability” (EMBO Reports, 2024).
Changes are numbered by the printed parent chain. No constants are given. Whether binding was seen depends on the method and setting. For some of these results: Binding seen in cells or lysates may run through a third protein. Some results given as binding are weak or reduced against the parent protein; the word gives no strength. Tags and fused reporters may be left off the sequences shown.

Sequences of proteins named here, by UniProt entry; tags and fusion partners are left off.
UniProt P54132: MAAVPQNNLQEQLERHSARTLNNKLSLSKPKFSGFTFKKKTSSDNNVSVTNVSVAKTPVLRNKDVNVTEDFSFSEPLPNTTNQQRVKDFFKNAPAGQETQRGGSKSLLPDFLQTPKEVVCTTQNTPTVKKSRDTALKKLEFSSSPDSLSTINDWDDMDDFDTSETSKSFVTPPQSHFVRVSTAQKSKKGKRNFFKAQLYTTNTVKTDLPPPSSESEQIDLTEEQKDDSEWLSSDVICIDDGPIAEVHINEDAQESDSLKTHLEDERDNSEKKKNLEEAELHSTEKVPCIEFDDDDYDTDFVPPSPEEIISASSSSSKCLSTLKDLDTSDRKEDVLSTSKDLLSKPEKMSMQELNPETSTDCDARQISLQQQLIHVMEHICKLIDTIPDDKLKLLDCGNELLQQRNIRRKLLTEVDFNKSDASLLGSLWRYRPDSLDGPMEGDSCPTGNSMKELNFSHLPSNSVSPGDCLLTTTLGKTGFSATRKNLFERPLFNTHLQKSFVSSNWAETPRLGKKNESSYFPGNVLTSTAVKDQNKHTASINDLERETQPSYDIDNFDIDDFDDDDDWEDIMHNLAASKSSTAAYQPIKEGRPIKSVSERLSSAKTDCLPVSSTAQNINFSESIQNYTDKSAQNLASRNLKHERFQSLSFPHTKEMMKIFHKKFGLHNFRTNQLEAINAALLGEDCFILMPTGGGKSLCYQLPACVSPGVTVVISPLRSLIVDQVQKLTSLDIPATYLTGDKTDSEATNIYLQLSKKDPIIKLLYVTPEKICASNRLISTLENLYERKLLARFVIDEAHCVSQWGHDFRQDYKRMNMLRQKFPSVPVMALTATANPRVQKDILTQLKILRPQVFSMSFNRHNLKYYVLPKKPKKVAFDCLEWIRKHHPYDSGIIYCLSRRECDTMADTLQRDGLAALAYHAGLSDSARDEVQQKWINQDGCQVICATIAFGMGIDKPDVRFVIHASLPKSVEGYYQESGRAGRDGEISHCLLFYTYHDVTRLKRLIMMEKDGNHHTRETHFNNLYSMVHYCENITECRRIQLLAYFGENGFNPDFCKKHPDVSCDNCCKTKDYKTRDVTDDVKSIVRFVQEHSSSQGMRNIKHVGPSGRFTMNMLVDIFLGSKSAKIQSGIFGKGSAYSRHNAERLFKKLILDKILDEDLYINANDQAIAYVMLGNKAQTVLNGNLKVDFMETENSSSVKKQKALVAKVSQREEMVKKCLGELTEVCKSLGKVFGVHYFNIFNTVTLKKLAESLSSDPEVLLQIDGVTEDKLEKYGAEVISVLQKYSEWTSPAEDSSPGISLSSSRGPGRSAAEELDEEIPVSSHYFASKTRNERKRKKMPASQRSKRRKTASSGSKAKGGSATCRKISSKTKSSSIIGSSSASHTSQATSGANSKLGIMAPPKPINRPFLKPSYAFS

B1: 6xHis-tagged AND-1 SepB (domain or fragment, human, UniProt O75717 336-826, looked up)
chain: GDFLNDNAVEIPSFSKGIINDDEDDEDLMMASGRPRQRSHILEDDENSVDISMLKTGSSLLKEEEEDGQEGSIHNLPLVTSQRPFYDGPMPTPRQKPFQSGSTPLHLTHRFMVWNSIGIIRCYNDEQDNAIDVEFHDTSIHHATHLSNTLNYTIADLSHEAILLACESTDELASKLHCLHFSSWDSSKEWIIDLPQNEDIEAICLGQGWAAAATSALLLRLFTIGGVQKEVFSLAGPVVSMAGHGEQLFIVYHRGTGFDGDQCLGVQLLELGKKKKQILHGDPLPLTRKSYLAWIGFSAEGTPCYVDSEGIVRMLNRGLGNTWTPICNTREHCKGKSDHYWVVGIHENPQQLRCIPCKGSRFPPTLPRPAVAILSFKLPYCQIATEKGQMEEQFWRSVIFHNHLDYLAKNGYEYEESTKNQATKEQQELLMKMLALSCKLEREFRCVELADLMTQNAVNLAIKYASRSRKLILAQKLSELAVEKAAELTAT
notes: AND-1 (WDHD1), human, SepB domain, amino-acid residues 336-826; pRSF-Duet-1 construct from Luca Pellegrini; purification as in Kilkenny et al, 2017; also called 6xHis-SepB; AND-1 SepB domain; source: E. coli BL21 (DE3), purified

Experiments:
[1] = molecular target: T1, Flag-tagged FANCJ D736H (in HeLa FJ-KO cells) (human) (UniProt Q9BX63); experiment: co-IP; anti-Flag agarose beads; whole extracts of HeLa FJ-KO cells transiently transfected with Flag-FANCJ WT or mutants; Western blot
T1 sequence: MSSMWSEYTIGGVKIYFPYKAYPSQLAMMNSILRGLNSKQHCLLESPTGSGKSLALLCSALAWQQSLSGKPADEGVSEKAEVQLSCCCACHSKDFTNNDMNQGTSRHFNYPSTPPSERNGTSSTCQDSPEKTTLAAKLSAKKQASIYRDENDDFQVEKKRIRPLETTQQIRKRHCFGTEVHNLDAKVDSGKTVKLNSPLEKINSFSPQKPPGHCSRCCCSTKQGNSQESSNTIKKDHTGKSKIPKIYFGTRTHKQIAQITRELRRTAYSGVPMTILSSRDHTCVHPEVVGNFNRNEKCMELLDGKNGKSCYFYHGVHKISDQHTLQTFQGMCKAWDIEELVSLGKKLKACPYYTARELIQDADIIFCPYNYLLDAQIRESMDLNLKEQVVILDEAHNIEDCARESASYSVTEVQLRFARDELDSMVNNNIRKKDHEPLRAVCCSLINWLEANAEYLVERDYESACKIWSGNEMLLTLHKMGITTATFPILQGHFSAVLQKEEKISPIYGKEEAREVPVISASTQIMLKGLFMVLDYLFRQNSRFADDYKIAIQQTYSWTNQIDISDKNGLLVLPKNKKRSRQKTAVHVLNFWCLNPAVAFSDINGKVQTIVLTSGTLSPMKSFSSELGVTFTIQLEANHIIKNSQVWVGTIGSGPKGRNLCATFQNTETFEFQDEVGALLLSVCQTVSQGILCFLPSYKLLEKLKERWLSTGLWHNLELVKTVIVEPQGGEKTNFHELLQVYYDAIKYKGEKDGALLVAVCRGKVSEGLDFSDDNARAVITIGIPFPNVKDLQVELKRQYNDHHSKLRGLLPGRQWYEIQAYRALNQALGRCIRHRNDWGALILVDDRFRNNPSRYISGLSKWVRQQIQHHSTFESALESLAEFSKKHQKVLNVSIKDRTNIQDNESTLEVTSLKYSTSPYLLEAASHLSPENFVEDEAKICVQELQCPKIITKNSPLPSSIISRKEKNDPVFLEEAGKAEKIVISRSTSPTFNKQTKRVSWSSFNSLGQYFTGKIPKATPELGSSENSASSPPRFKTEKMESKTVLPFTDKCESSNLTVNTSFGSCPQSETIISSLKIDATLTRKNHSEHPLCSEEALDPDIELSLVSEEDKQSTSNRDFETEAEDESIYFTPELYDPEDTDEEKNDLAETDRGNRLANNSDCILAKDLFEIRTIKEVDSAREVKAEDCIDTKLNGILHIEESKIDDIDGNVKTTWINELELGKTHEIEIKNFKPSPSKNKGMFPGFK

[2] = molecular target: T2, Flag-tagged FANCJ N734H (in HeLa FJ-KO cells) (human) (UniProt Q9BX63); experiment: as above
T2 sequence: T1 sequence with N734H, H736D

[3] = molecular target: T3, Flag-tagged FANCJ wild type (in HeLa FJ-KO cells) (human) (UniProt Q9BX63); experiment: as above
T3 sequence: T1 sequence with H736D

[4] = molecular target: T4, Flag-tagged DDX11 (human) (UniProt Q96FC9); experiment: pull-down; Flag-tagged protein (2 µg) on anti-Flag M2 agarose beads, purified AND-1 SepB (4 µg) added; 20 mM HEPES-NaOH pH 7.2, 150 mM NaCl, 0.1% Igepal, 1% BSA, 4 °C; Western blot; both purified
T4 sequence: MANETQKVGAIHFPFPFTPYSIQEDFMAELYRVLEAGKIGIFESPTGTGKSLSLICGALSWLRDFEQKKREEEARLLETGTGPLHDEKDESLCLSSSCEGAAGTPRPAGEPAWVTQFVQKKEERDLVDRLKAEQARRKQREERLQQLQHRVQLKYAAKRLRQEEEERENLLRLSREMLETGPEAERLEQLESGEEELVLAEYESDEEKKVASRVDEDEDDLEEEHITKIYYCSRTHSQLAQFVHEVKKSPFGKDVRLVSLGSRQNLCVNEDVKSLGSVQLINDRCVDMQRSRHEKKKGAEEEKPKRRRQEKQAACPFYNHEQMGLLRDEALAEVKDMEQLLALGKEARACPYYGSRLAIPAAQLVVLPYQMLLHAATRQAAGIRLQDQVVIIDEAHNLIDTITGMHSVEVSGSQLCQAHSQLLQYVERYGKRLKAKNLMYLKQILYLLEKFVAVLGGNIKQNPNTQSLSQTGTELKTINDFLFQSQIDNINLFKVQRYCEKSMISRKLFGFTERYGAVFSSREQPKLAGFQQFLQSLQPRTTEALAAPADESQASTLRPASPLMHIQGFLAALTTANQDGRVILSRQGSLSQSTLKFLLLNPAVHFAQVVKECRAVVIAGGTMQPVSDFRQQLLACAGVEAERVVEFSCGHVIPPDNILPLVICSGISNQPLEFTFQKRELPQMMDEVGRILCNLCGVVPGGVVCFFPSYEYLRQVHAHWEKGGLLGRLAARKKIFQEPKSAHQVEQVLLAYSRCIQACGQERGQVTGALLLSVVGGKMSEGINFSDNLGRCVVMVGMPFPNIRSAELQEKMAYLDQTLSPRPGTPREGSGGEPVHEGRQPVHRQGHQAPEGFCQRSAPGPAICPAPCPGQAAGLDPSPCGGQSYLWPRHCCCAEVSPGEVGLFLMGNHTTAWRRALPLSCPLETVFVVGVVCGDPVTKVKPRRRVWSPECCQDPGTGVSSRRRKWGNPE

Row | Molecule | binding [1] | binding [2] | binding [3] | binding [4]
1 | BLM (from UniProt P54132 1-1417) | binds | binds | binds | –
2 | B1 | – | – | – | no binding (tested: 4 µg SepB)
